PubChem BioAssay AID743454, Peter MacCallum Cancer Centre, 2014
This is an unselected part of about 18,000 deposited reagents. 450 of them (2.5%) were called active. 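Single biological run; no consistent viability z cut-off exists, so the class columns, not z-scores, define the calls.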 Unmarked entries are inactive. Reagent sequences are not shown.

Assay: 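Knock-downs lowering viability or raising caspase 3/7 activity in vorinostat-treated resistant cells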 (primary screen)
Cell system: human HCT116-VR colon cancer cells, selected for vorinostat resistance
Reagent: siRNA pool against human genes, 40 nM siRNA pool
Time to read-out: vorinostat for 24 h, read-out about 72 h after transfection
Conditions: vorinostat at 2.5 µM final
Measurement: 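Two measures, CellTiter-Fluor viability and luminescent caspase 3/7 activity, each as fold change against same-plate mock wells, mean of duplicates, then screen-wide robust z-score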
Scale: viability robust z-score: higher = more viable cells than screen typical; caspase robust z-score: higher = more caspase 3/7 activity than screen typical
Hit rule: 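a knock-down is a hit when classed RV1 or RV2 for lowered viability, or CA1 or CA2 for caspase activation; those lethal without drug were dropped; hits were retested singly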

For DYDC1 (DPY30 domain containing 1), the entry reads viability hit class no change; caspase hit class no change; viability robust z-score -1.23; caspase robust z-score 0.02.
With knock-down of ASL (argininosuccinate lyase), the screen gave viability hit class no change; caspase hit class no change; viability robust z-score 1.42; caspase robust z-score -0.48.
Against MYC (MYC proto-oncogene, bHLH transcription factor) the deposit lists viability hit class no change; caspase hit class no change; viability robust z-score -1.44; caspase robust z-score -1.07.
COBLL1 (cordon-bleu WH2 repeat protein like 1) gave viability hit class no change; caspase hit class no change; viability robust z-score -0.15; caspase robust z-score -0.66.
Depletion of CCDC80 (coiled-coil domain containing 80) resulted in: viability hit class no change; caspase hit class no change; viability robust z-score 0.24; caspase robust z-score 2.12.
Depletion of IQGAP3 (IQ motif containing GTPase activating protein 3) resulted in: viability hit class no change; caspase hit class no change; viability robust z-score -0.74; caspase robust z-score -0.3.
CT45A1 (cancer/testis antigen family 45 member A1) scored viability hit class no change; caspase hit class no change; viability robust z-score 0.05; caspase robust z-score -0.63.
For CHERP (calcium homeostasis endoplasmic reticulum protein) the deposit lists viability hit class no change; caspase hit class no change; viability robust z-score -0.97; caspase robust z-score 1.04.
Against CIMAP1C (ciliary microtubule associated protein 1C), the values are viability hit class no change; caspase hit class no change; viability robust z-score 0.47; caspase robust z-score 0.68.
ANKRD7 (ankyrin repeat domain 7) showed viability hit class no change; caspase hit class no change; viability robust z-score -0.45; caspase robust z-score -1.02.
With knock-down of TXNIP (thioredoxin interacting protein) the results were viability hit class no change; caspase hit class no change; viability robust z-score -0.63; caspase robust z-score 1.84.
PPP3CC (protein phosphatase 3 catalytic subunit gamma) scored viability hit class no change; caspase hit class no change; viability robust z-score -2.79; caspase robust z-score 0.95.
With knock-down of STK36 (serine/threonine kinase 36), the record shows viability hit class no change; caspase hit class no change; viability robust z-score 0.67; caspase robust z-score 0.77.
UIMC1 (ubiquitin interaction motif containing 1) showed viability hit class no change; caspase hit class no change; viability robust z-score 0.82; caspase robust z-score -0.11.
For PDGFB (platelet derived growth factor subunit B), the entry reads viability hit class no change; caspase hit class no change; viability robust z-score -0.88; caspase robust z-score 3.46.
Silencing of DDO (D-aspartate oxidase) resulted in: viability hit class no change; caspase hit class no change; viability robust z-score 0.08; caspase robust z-score 4.01.

Records listed so far whose target name starts with D or d (2):
DYDC1 (DPY30 domain containing 1) | viability hit class = no change; caspase hit class = no change; viability robust z-score = -1.23; caspase robust z-score = 0.02
DDO (D-aspartate oxidase) | viability hit class = no change; caspase hit class = no change; viability robust z-score = 0.08; caspase robust z-score = 4.01

Additional results follow.
For RARB (retinoic acid receptor beta) the deposit lists viability hit class no change; caspase hit class no change; viability robust z-score 0.84; caspase robust z-score 3.86.
For MTRF1 (mitochondrial translation release factor 1), the entry reads viability hit class no change; caspase hit class no change; viability robust z-score 1; caspase robust z-score -0.03.
Depletion of EGR1 (early growth response 1) came out at: viability hit class no change; caspase hit class no change; viability robust z-score 0.78; caspase robust z-score 1.12.
Knock-down of PIGL (phosphatidylinositol glycan anchor biosynthesis class L) resulted in: viability hit class no change; caspase hit class no change; viability robust z-score -1.4; caspase robust z-score 1.42.
Depletion of PACS2 (phosphofurin acidic cluster sorting protein 2) resulted in: viability hit class no change; caspase hit class no change; viability robust z-score 0.84; caspase robust z-score -0.72.
With knock-down of ASPSCR1 (ASPSCR1 tether for SLC2A4, UBX domain containing) the results were viability hit class no change; caspase hit class no change; viability robust z-score 0.04; caspase robust z-score -0.78.
Silencing of DNASE2 (deoxyribonuclease 2, lysosomal) came out at: viability hit class no change; caspase hit class no change; viability robust z-score 0.08; caspase robust z-score 1.84.
Silencing of ZMYM3 (zinc finger MYM-type containing 3) gave: viability hit class no change; caspase hit class no change; viability robust z-score 2.28; caspase robust z-score -0.27.
Against LNPK (lunapark, ER junction formation factor), the values are viability hit class no change; caspase hit class no change; viability robust z-score -0.26; caspase robust z-score -1.34.
After knock-down of RUFY3 (RUN and FYVE domain containing 3) the results were viability hit class no change; caspase hit class no change; viability robust z-score -0.73; caspase robust z-score 0.19.
SRPX (sushi repeat containing protein X-linked) scored viability hit class no change; caspase hit class no change; viability robust z-score 0.93; caspase robust z-score -1.33.
